Experimental data reported in patent US20170260508A1.
No constants are given. Whether binding was seen depends on the method and setting. Where a sequence is shown, tags or fusion partners need not be part of it.

Molecular target: LILRB2 Ig1+2 fragment with mutations in AA 92-100 (Mut-8 aa) (human)
Test: flow cytometry, Angptl2 on 293T cells expressing the mutant

B1: Angptl2-FLAG, full-length human Angptl2 secreted from transfected 293T cells (ligand, not shown: small tags and cut ends)
chain: QEDGFEGTEEGSPREFIYLNRYKRAGESQDKCTYTFIVPQQRVTGAICVNSKEPEVLLENRVHKQELELLNNELLKQKRQIETLQQLVEVDGGIVSEVKLLRKESRNMNSRVTQLYMQLLHEIIRKRDNALELSQLENRILNQTADMLQLASKYKDLEHKYQHLATLAHNQSEIIAQLEEHCQRVPSARPVPQPPPAAPPRVYQPPTYNRIINQISTNEIQSDQNLKVLPPPLPTMPTLTSLPSSTDKPSGPWRDCLQALEDGHDTSSIYLVKPENTNRLMQVWCDQRHDPGGWTVIQRRLDGSVNFFRNWETYKQGFGNIDGEYWLGLENIYWLTNQGNYKLLVTMEDWSGRKVFAEYASFRLEPESEYYKLRLGRYHGNAGDSFTWHNGKQFTTLDRDHDVYTGNCAHYQKGGWWYNACAHSNLNGVWYRGGHYRSRYQDGVYWAEFRGGSYSLKKVVMMIRPNPNTFH
binding: no binding
